{"source": "PubChem BioAssay AID1159584 (Peter MacCallum Cancer Centre, 2016)", "test": "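Knock-downs that harm CDH1-null cells more than parental MCF10A cells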 (primary screen)", "cells": "human MCF10A breast epithelial cells, parental and CDH1-null", "reagents": "siRNA against human genes", "measurement": "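Cell viability by CellTiter-Glo ATP luminescence, each line scaled to the mean of mock wells across plates, then CDH1-null over parental ratio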", "reading the numbers": "CDH1-null / parental viability ratio: higher = CDH1-null cells survive relatively better than parental", "note": "Here is one part, drawn at random, of about 18,000 reagents. Not all columns of the deposit are shown. The record does not give: the amount of reagent, the time to read-out."}
{"target gene": "F2RL2", "CDH1-null / parental viability ratio": 1.42}
{"target gene": "PRAM1", "CDH1-null / parental viability ratio": 0.9}
{"target gene": "SYT17", "CDH1-null / parental viability ratio": 0.74}
{"target gene": "CTNS", "CDH1-null / parental viability ratio": 1.2}
{"target gene": "BAZ2A", "CDH1-null / parental viability ratio": 1.15}
{"target gene": "IFT46", "CDH1-null / parental viability ratio": 1.02}
{"target gene": "IFNA10", "CDH1-null / parental viability ratio": 1.09}
{"target gene": "PTGR1", "CDH1-null / parental viability ratio": 0.95}
{"target gene": "ZNF205", "CDH1-null / parental viability ratio": 0.89}
{"target gene": "SPATA16", "CDH1-null / parental viability ratio": 0.77}
{"target gene": "NDOR1", "CDH1-null / parental viability ratio": 1.04}
{"target gene": "ARMCX1", "CDH1-null / parental viability ratio": 1}
{"target gene": "SAP30L", "CDH1-null / parental viability ratio": 0.8}
{"target gene": "SLC25A10", "CDH1-null / parental viability ratio": 1.02}

Targets above whose gene name begins with I or i (2):
{"target gene": "IFT46", "CDH1-null / parental viability ratio": 1.02}
{"target gene": "IFNA10", "CDH1-null / parental viability ratio": 1.09}
